Measured values taken from US11066455B2, “Tmem100 peptides and variants thereof and their use in treating or preventing diseases or conditions” (The Johns Hopkins University, priority 2014, dated 2021).
Results are given in words; binding and its absence hold for the method and conditions named. Binding can be weak; no strength is given.

Legend:
[1] = biological target: TRPA1 (expressed in heterologous cells: CHO, HEK293T); test: FRET-TIRF
[2] = biological target: TRPV1 (expressed in heterologous cells: CHO, HEK293T); test: FRET-TIRF
[3] = biological target: TRPA1 (expressed in heterologous cells: CHO, HEK293T); test: summary of electrophysiological and biochemical results
[4] = biological target: TRPV1 (expressed in heterologous cells: CHO, HEK293T); test: as above

Measured: binding

B1: Tmem100 (wild-type, full-length, mouse) (other)
chain: MTEESTKENLGAPKSPTPVTMEKNPKREVVVTTGPLVSEVQLMAATGGAELSCYRCIIPFAVVVFITGIVVTAVAYSFNSHGSIISIFGLVLLSSGLFLLASSALCWKVRQRNKKVKRRESQTALVVNQRCLFA
notes: also called Pirt2; T100
binds: all assays above
